Our source for the binding signal values is publication PMC7819943, “Rice protein-binding microarrays: a tool to detect cis-acting elements near promoter regions in rice”.

Some of the results follow.

This assay has as its target T1, OsSMF1 (Oryza sativa, UniProt Q6ZLB0 1-436).
T1 sequence: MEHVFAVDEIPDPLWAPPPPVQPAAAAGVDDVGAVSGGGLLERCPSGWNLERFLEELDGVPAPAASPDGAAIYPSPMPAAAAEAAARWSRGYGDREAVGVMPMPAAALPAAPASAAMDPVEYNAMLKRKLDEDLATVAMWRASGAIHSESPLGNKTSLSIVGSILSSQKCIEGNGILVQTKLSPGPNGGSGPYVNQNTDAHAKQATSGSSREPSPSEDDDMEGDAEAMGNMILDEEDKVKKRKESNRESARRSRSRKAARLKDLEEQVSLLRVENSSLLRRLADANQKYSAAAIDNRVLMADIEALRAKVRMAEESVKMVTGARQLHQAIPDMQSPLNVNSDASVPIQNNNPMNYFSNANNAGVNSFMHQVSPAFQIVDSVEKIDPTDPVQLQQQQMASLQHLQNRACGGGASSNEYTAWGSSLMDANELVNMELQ
The assay is described as follows: protein-binding microarray (RPBM); PBS, 2% BSA, 51.3 ng/ul salmon testes DNA, 50 uM zinc acetate, 200 nM TF, 25 C, 1 h; high values mean tight binding. Conditions: protein: recombinant; tags: N-terminal polyhistidine and DsRed monomer fusion (pET32a); chain copies: 2; label: CyDye5-dUTP incorporated in the synthesized complementary strand; 3' TTTTT single-stranded linker to array surface; dsDNA, one strand shown. The essentials:
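Polyhistidine-tagged DsRed fusions of transcription factors, joined at the N-terminus, were expressed in E. coli BL21-CodonPlus and isolated on Ni–NTA. They were incubated at 200 nM for 1 h at 25 °C on a custom Agilent array, double-stranded and BSA-blocked, in PBS with 2% BSA, salmon testes DNA and 50 µM zinc acetate. The binding signal is per-feature fluorescence intensity (arbitrary units) read on an Axon 4000B scanner after washing.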
Take “ACTATAAGTAGAGACCTGTTCATCATGGACAGGCAGGCAGCGGAGTCACCTAGTGCAG”: the binding signal was 7140 fluorescence intensity (a.u.).
On to “GCAAGAATTTTCCGTCATACTTCCTGTTCGGATAAGACCACGGAGTCACCTAGTGCAG”, for which the binding signal is 3180 fluorescence intensity (a.u.).
The result for “CTTTGCTCGGAAGTCTGTCTATGTCATCTTGATGAACCCTCGGAGTCACCTAGTGCAG” reads 4830 fluorescence intensity (a.u.).
For the sequence “TTAAATTTAGGACCGAATTACACGTACGTCAGGCGCGCTCCGGAGTCACCTAGTGCAG”, the binding signal was 4300 fluorescence intensity (a.u.).
With “ACCACCACCTCGAAGGTCTTGAGCTCCATCTCCGGCGACGCGGAGTCACCTAGTGCAG” the figure was 11200 fluorescence intensity (a.u.).
In the case of “TTGTGAGTTGGCCTTTTGTGACTGTAAATTTTCCAGGTGACGGAGTCACCTAGTGCAG”, the binding signal was 4170 fluorescence intensity (a.u.).
The result for “GGATTTGGCCATTTCTTGCCTCGTGTCGTTGGCAGAGACCCGGAGTCACCTAGTGCAG” reads 3950 fluorescence intensity (a.u.); that for “ATTTTGATATTGGCTAAATCATCACGTGTCGACATGTATGCGGAGTCACCTAGTGCAG”, 6620 fluorescence intensity (a.u.).
For “TTTCTAAGACATTTGTGCCACTTGGCATGAATCTAATTTACGGAGTCACCTAGTGCAG”, the binding signal is 3780 fluorescence intensity (a.u.).
The result for “TCAGTCAATCTGGACCGTCCACGTGTACGTTTTCTCCTCTCGGAGTCACCTAGTGCAG” reads 13600 fluorescence intensity (a.u.); that for “CTAAATGAACTGATATATCGCTGACTTGGTTTCCATGCAGCGGAGTCACCTAGTGCAG”, 4860 fluorescence intensity (a.u.).
The result for “ACTAATTGTGGCCATGTTCATCGTGCAGTTCCTTGGATCTCGGAGTCACCTAGTGCAG” reads 17300 fluorescence intensity (a.u.).
As to “TTTCCGTCACCTTAGTGAAGATGGTAGTGCCTCTCATCCACGGAGTCACCTAGTGCAG”, the binding signal is 3300 fluorescence intensity (a.u.).
With “AGTATGCCACCGCGTATACTCGCGTCACCCGGCTGTAACGCGGAGTCACCTAGTGCAG”, the binding signal is 5600 fluorescence intensity (a.u.).
The result for “CGGTCAATATCGCCACGTAGGCGGCCACGTCCGTGAAACCCGGAGTCACCTAGTGCAG” reads 14000 fluorescence intensity (a.u.).
On to “GAAACCTGATGATGCTTGATGGAAATCCATTAGACAGCGTCGGAGTCACCTAGTGCAG”, for which the binding signal was 4580 fluorescence intensity (a.u.).
The result for “CCACCACCGCGCCACCATGGGCGCCGCCACCGCCCAGCCGCGGAGTCACCTAGTGCAG” reads 3250 fluorescence intensity (a.u.).
Take “GTAGTTGTTGTACGTTGATTTCAGGAAGCTGCGTGCACGACGGAGTCACCTAGTGCAG”: the binding signal was 12700 fluorescence intensity (a.u.).
With “CACTGTCTCACATGAACCCACTAATACGTGGGTCTCACTACGGAGTCACCTAGTGCAG” the figure was 3780 fluorescence intensity (a.u.); with “CGACGTCGATGACGACTTCTATTTCTCTCGTGCCCTTCTCCGGAGTCACCTAGTGCAG”, 4990 fluorescence intensity (a.u.); with “TCTCGTTTCCTTGCACGTAAGCCGCGCCCTTTTGCCTTGCCGGAGTCACCTAGTGCAG”, 3400 fluorescence intensity (a.u.).
The result for “TATAATAGTAGGTTATAAGCCGGCTAAATGCTGAGTTGGACGGAGTCACCTAGTGCAG” reads 6560 fluorescence intensity (a.u.); that for “CTTCAGGGTCTAGTCTTTTCAAACCATCGGAGTTATCGTCCGGAGTCACCTAGTGCAG”, 3530 fluorescence intensity (a.u.); that for “AGCAGCTTGTATGAGCTCTGCATCGGAAGCCACTCGTCGACGGAGTCACCTAGTGCAG”, 5540 fluorescence intensity (a.u.).
With “CCTAATTATCTTAGTAATCACCTTTCTTAGTCACCGGCAACGGAGTCACCTAGTGCAG” the figure was 4200 fluorescence intensity (a.u.); with “TTATTTTCCTGCTAAAATTGCCACGTAGGACGGTTGTGCTCGGAGTCACCTAGTGCAG”, 19000 fluorescence intensity (a.u.); with “TTTGGATTCTATCTATTTCTGTGTCATCAGATGCACACCGCGGAGTCACCTAGTGCAG”, 7520 fluorescence intensity (a.u.).
On to “GTGAGATTTGTTGCAACATACTGTGGCCCACTTGTCAGATCGGAGTCACCTAGTGCAG”, for which the binding signal is 3700 fluorescence intensity (a.u.).
With “GATACGCGGCGGCTGAGTCAGCGTGGGACCCACGTGGGCCCGGAGTCACCTAGTGCAG”, the binding signal is 13000 fluorescence intensity (a.u.).
As for “TCGTGGCCGTCCGATGCGTATAAATCGACGCCTCCATCTCCGGAGTCACCTAGTGCAG”, the binding signal is 32500 fluorescence intensity (a.u.).
For the sequence “GTAAAGGGTACCAAGCCCACAGTGGGCGTGACCCTAGCTTCGGAGTCACCTAGTGCAG”, the binding signal was 3220 fluorescence intensity (a.u.).
In the case of “TCCGAAAGGAGCAGCCTCCACATCAACCGCCTCTCTCATTCGGAGTCACCTAGTGCAG”, the binding signal is 3720 fluorescence intensity (a.u.).
Regarding “TACACCAGCGATGGTTACTAGCATTCAGAGAAACACCACACGGAGTCACCTAGTGCAG”, the binding signal was 30300 fluorescence intensity (a.u.).
Consider “TTAGTCGCAAACTAAAATAAAGATGATGTCATTGACCATACGGAGTCACCTAGTGCAG”, for which the binding signal was 10800 fluorescence intensity (a.u.).
In the case of “TCCATTTCTGAGCTCTTCTAGTTTGAGTGAGAGAGCAGCACGGAGTCACCTAGTGCAG”, the binding signal was 22800 fluorescence intensity (a.u.).
In the case of “AAGGTGATCAGGAAAAGCAACATTGCAATGCAGAAATGCACGGAGTCACCTAGTGCAG”, the binding signal was 34600 fluorescence intensity (a.u.).
As to “TTCGCTGCTCGGCCTGGCTCGACTGATGTACACCGCTGCACGGAGTCACCTAGTGCAG”, the binding signal is 3590 fluorescence intensity (a.u.).
Regarding “GCAAACCCCATCCATTTTGAAACGAAAGCTGACAAGTGAACGGAGTCACCTAGTGCAG”, the binding signal was 3220 fluorescence intensity (a.u.).
On to “ATTATTAAAATATATAAATATTGAATTTAATAAAATAATTCGGAGTCACCTAGTGCAG”, for which the binding signal was 26400 fluorescence intensity (a.u.).
In the case of “ATGTGGCTAGAGTTGGGGTTTAGTGTCAGTTGTTAGGGATCGGAGTCACCTAGTGCAG”, the binding signal was 3310 fluorescence intensity (a.u.).
As to “GATTCTTCTATGTGGCATGAGGTAACCCTGGGTCGGCTTGCGGAGTCACCTAGTGCAG”, the binding signal was 4110 fluorescence intensity (a.u.).
Turning to “TTGTTCTACCACGTGTCCTATCCTCCTCCTCCCAACATCGCGGAGTCACCTAGTGCAG”, the binding signal was 16900 fluorescence intensity (a.u.).
